Assay results published in paper PMC5828360, “Identification and characterization of highly versatile peptide-vectors that bind non-competitively to the low-density lipoprotein receptor for in vivo targeting and delivery of small molecules and protein cargos” (PLoS ONE, 2018).
Results are given in words; binding and its absence hold for the method and conditions named. Some binding calls cover weakened binding; strength is not graded here.

Target: human LDLR, endogenous on HUVEC (human (endogenous in HUVEC)) (UniProt P01130)
Experiment: flow cytometry on cells; 1.10^10 phage on 1.10^6 HUVEC, 20 min on ice, without or with LDL at 0.5 mg/mL; anti-M13 (anti-PVIII) and anti-hLDLR antibodies; signal in zone Q2; only the binder purified

TPSAHAMALQSLSVG [VH549 peptide displayed on phage]
binding: binds
